No constants are given. Whether binding was seen depends on the method and setting. Some results given as binding are weak or reduced against the parent protein; the word gives no strength.
B1: huMA79b graft variant SEQ ID NO: 37 (Fab, name in Kabat numbering, V domains shown)
VH: EVQLVESGGGLVQPGGSLRLSCAASGYTFSSYWIEWVRQAPGKGLEWVGEILPGGGDTNYNEIFKGRFTISADTSKNTAYLQMNSLRAEDTAVYYCTRRVPVYFDYWGQGTLVTVSS
VL: DIQMTQSPSSLSASVGDRVTITCKASQSVDYDGDSFLNWYQQKPGKAPKLLIYAARYLRRGVPSRFSGSGSGTDFTLTISSLQPEDFATYYCQQSNEDPLTFGQGTKVEIKR
B2: huMA79b graft variant SEQ ID NO: 40 (Fab, name in Kabat numbering, V domains shown)
VH: EVQLVESGGGLVQPGGSLRLSCAASGYTFSSYWIEWVRQAPGKGLEWVGEILPGGGDTNYNEIFKGRFTISADTSKNTAYLQMNSLRAEDTAVYYCTRRVPVYFDYWGQGTLVTVSS
VL: DIQMTQSPSSLSASVGDRVTITCKASQSVDYDGDSFLNWYQQKPGKAPKLLIYAARQRKRGVPSRFSGSGSGTDFTLTISSLQPEDFATYYCQQSNEDPLTFGQGTKVEIKR
B3: huMA79b graft variant SEQ ID NO: 46 (Fab, name in Kabat numbering, V domains shown)
VH: EVQLVESGGGLVQPGGSLRLSCAASGYTFSSYWIEWVRQAPGKGLEWVGEILPGGGDTNYNEIFKGRFTISADTSKNTAYLQMNSLRAEDTAVYYCTRRVPVYFDYWGQGTLVTVSS
VL: DIQMTQSPSSLSASVGDRVTITCKASQSVDYDGDSFLNWYQQKPGKAPKLLIYAASNLESGVPSRFSGSGSGTDFTLTISSLQPEDFATYYCQQSNADPLTFGQGTKVEIKR
B4: huMA79b graft variant SEQ ID NO: 44 (Fab, name in Kabat numbering, V domains shown)
VH: EVQLVESGGGLVQPGGSLRLSCAASGYTFSSYWIEWVRQAPGKGLEWVGEILPGGGDTNYNEIFKGRFTISADTSKNTAYLQMNSLRAEDTAVYYCTRRVPVYFDYWGQGTLVTVSS
VL: DIQMTQSPSSLSASVGDRVTITCKASQSVDYDGDSFLNWYQQKPGKAPKLLIYAARKLGGGVPSRFSGSGSGTDFTLTISSLQPEDFATYYCQQSNEDPLTFGQGTKVEIKR
B5: huMA79b graft variant SEQ ID NO: 38 (Fab, name in Kabat numbering, V domains shown)
VH: EVQLVESGGGLVQPGGSLRLSCAASGYTFSSYWIEWVRQAPGKGLEWVGEILPGGGDTNYNEIFKGRFTISADTSKNTAYLQMNSLRAEDTAVYYCTRRVPVYFDYWGQGTLVTVSS
VL: DIQMTQSPSSLSASVGDRVTITCKASQSVDYDGDSFLNWYQQKPGKAPKLLIYAARRLRTGVPSRFSGSGSGTDFTLTISSLQPEDFATYYCQQSNEDPLTFGQGTKVEIKR
B6: huMA79b graft variant SEQ ID NO: 90 (Fab, name in Kabat numbering, V domains shown)
VH: EVQLVESGGGLVQPGGSLRLSCAASGYTFSSYWIEWVRQAPGKGLEWVGEILPGGGDTNYNEIFKGRFTISADTSKNTAYLQMNSLRAEDTAVYYCTRRVPVYLDYWGQGTLVTVSS
VL: DIQMTQSPSSLSASVGDRVTITCKASQSVDYDGDSFLNWYQQKPGKAPKLLIYAASNLESGVPSRFSGSGSGTDFTLTISSLQPEDFATYYCQQSNEDPLTFGQGTKVEIKR
B7: huMA79b graft variant SEQ ID NO: 91 (Fab, name in Kabat numbering, V domains shown)
VH: EVQLVESGGGLVQPGGSLRLSCAASGYTFSSYWIEWVRQAPGKGLEWVGEILPGGGDTNYNEIFKGRFTISADTSKNTAYLQMNSLRAEDTAVYYCTRRVPIYFDYWGQGTLVTVSS
VL: DIQMTQSPSSLSASVGDRVTITCKASQSVDYDGDSFLNWYQQKPGKAPKLLIYAASNLESGVPSRFSGSGSGTDFTLTISSLQPEDFATYYCQQSNEDPLTFGQGTKVEIKR
B8: huMA79b graft variant SEQ ID NO: 87 (Fab, name in Kabat numbering, V domains shown)
VH: EVQLVESGGGLVQPGGSLRLSCAASGYTFSSYWIEWVRQAPGKGLEWVGEILPGGGDTNYNEIFKGRFTISADTSKNTAYLQMNSLRAEDTAVYYCTRRVPIYLDYWGQGTLVTVSS
VL: DIQMTQSPSSLSASVGDRVTITCKASQSVDYDGDSFLNWYQQKPGKAPKLLIYAASNLESGVPSRFSGSGSGTDFTLTISSLQPEDFATYYCQQSNEDPLTFGQGTKVEIKR
B9: huMA79b graft variant SEQ ID NO: 45 (Fab, name in Kabat numbering, V domains shown)
VH: EVQLVESGGGLVQPGGSLRLSCAASGYTFSSYWIEWVRQAPGKGLEWVGEILPGGGDTNYNEIFKGRFTISADTSKNTAYLQMNSLRAEDTAVYYCTRRVPVYFDYWGQGTLVTVSS
VL: DIQMTQSPSSLSASVGDRVTITCKASQSVDYDGDSFLNWYQQKPGKAPKLLIYAARKLARGVPSRFSGSGSGTDFTLTISSLQPEDFATYYCQQSNEDPLTFGQGTKVEIKR
B10: huMA79b graft variant SEQ ID NO: 41 (Fab, name in Kabat numbering, V domains shown)
VH: EVQLVESGGGLVQPGGSLRLSCAASGYTFSSYWIEWVRQAPGKGLEWVGEILPGGGDTNYNEIFKGRFTISADTSKNTAYLQMNSLRAEDTAVYYCTRRVPVYFDYWGQGTLVTVSS
VL: DIQMTQSPSSLSASVGDRVTITCKASQSVDYDGDSFLNWYQQKPGKAPKLLIYAARKLLRGVPSRFSGSGSGTDFTLTISSLQPEDFATYYCQQSNEDPLTFGQGTKVEIKR
B11: huMA79b graft variant SEQ ID NO: 42 (Fab, name in Kabat numbering, V domains shown)
VH: EVQLVESGGGLVQPGGSLRLSCAASGYTFSSYWIEWVRQAPGKGLEWVGEILPGGGDTNYNEIFKGRFTISADTSKNTAYLQMNSLRAEDTAVYYCTRRVPVYFDYWGQGTLVTVSS
VL: DIQMTQSPSSLSASVGDRVTITCKASQSVDYDGDSFLNWYQQKPGKAPKLLIYAARKLKNGVPSRFSGSGSGTDFTLTISSLQPEDFATYYCQQSNEDPLTFGQGTKVEIKR
B12: huMA79b graft variant SEQ ID NO: 39 (Fab, name in Kabat numbering, V domains shown)
VH: EVQLVESGGGLVQPGGSLRLSCAASGYTFSSYWIEWVRQAPGKGLEWVGEILPGGGDTNYNEIFKGRFTISADTSKNTAYLQMNSLRAEDTAVYYCTRRVPVYFDYWGQGTLVTVSS
VL: DIQMTQSPSSLSASVGDRVTITCKASQSVDYDGDSFLNWYQQKPGKAPKLLIYAARRLGRGVPSRFSGSGSGTDFTLTISSLQPEDFATYYCQQSNEDPLTFGQGTKVEIKR
B13: huMA79b graft variant SEQ ID NO: 47 (Fab, name in Kabat numbering, V domains shown)
VH: EVQLVESGGGLVQPGGSLRLSCAASGYTFSSYWIEWVRQAPGKGLEWVGEILPGGGDTNYNEIFKGRFTISADTSKNTAYLQMNSLRAEDTAVYYCTRRVPVYFDYWGQGTLVTVSS
VL: DIQMTQSPSSLSASVGDRVTITCKASQSVDYDGDSFLNWYQQKPGKAPKLLIYAASNLESGVPSRFSGSGSGTDFTLTISSLQPEDFATYYCQQSNQDPLTFGQGTKVEIKR
B14: huMA79b graft variant SEQ ID NO: 43 (Fab, name in Kabat numbering, V domains shown)
VH: EVQLVESGGGLVQPGGSLRLSCAASGYTFSSYWIEWVRQAPGKGLEWVGEILPGGGDTNYNEIFKGRFTISADTSKNTAYLQMNSLRAEDTAVYYCTRRVPVYFDYWGQGTLVTVSS
VL: DIQMTQSPSSLSASVGDRVTITCKASQSVDYDGDSFLNWYQQKPGKAPKLLIYAARKLGTGVPSRFSGSGSGTDFTLTISSLQPEDFATYYCQQSNEDPLTFGQGTKVEIKR

The chains behind the UniProt entries cited, without tags or fusion partners. Where a name states a change or a piece, a line headed by the entry shows the natural chain unless it says otherwise.
UniProt P40259: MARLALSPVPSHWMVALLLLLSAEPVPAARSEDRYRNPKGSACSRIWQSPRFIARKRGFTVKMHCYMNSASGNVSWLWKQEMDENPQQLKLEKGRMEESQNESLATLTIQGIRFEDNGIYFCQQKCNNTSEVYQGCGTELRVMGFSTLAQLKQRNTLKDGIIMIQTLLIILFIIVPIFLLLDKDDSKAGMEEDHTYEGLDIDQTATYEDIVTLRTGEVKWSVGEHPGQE

Target: extracellular domain of human CD79b (human) (UniProt P40259)
Experiment: phage selection, Fab on phage, plate-bound huCD79becd

binding, binds:
B1
B2
B3
B4
B5
B6
B7
B8
B9
B10
B11
B12
B13
B14
